Results reported in patent US20080187577A1 (University of Texas, published 2008).
No constants are given. Whether binding was seen depends on the method and setting. In cells and extracts the contact can be indirect. Binding calls can cover weak binding; strength is not graded here.

How the values were obtained:
[1] = target: recombinant Annexin II; test: co-immunoprecipitation in vitro (FIG. 4B)
[2] = target: recombinant Annexin II; test: in vitro co-immunoprecipitation, Western blot and coomassie blue (FIG. 4B)

B1: full-length recombinant human PG1-80 (rhPG) (ligand)
chain: SWKPRSQQPDAPLGTGANRDLELPWLEQQGPASHHRRQLGPQGPPHLVADPSKKQGPWLEEEEEAYGWMDFGRRSAEDEN
notes: Expressed in E. coli from pET32 as a thioredoxin fusion and purified; also called recombinant human progastrin; progastrin
[1]
  binding: binds
[2]
  binding: binds
